Source: the supplement of paper PMC10849652
Some of the results follow.

By UniProt entry, the sequences of proteins in these tests, tags left out. Where a name states a change or a piece, a line headed by the entry shows the natural chain unless it says otherwise.
UniProt Q13287: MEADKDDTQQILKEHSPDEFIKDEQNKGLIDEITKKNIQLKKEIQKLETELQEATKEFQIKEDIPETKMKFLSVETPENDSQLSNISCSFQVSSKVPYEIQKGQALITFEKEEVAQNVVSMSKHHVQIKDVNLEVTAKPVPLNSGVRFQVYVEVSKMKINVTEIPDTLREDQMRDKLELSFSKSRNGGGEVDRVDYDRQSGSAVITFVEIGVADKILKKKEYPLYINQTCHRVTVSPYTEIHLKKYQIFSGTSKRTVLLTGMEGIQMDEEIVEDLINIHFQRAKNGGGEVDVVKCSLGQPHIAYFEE
UniProt Q8NC60: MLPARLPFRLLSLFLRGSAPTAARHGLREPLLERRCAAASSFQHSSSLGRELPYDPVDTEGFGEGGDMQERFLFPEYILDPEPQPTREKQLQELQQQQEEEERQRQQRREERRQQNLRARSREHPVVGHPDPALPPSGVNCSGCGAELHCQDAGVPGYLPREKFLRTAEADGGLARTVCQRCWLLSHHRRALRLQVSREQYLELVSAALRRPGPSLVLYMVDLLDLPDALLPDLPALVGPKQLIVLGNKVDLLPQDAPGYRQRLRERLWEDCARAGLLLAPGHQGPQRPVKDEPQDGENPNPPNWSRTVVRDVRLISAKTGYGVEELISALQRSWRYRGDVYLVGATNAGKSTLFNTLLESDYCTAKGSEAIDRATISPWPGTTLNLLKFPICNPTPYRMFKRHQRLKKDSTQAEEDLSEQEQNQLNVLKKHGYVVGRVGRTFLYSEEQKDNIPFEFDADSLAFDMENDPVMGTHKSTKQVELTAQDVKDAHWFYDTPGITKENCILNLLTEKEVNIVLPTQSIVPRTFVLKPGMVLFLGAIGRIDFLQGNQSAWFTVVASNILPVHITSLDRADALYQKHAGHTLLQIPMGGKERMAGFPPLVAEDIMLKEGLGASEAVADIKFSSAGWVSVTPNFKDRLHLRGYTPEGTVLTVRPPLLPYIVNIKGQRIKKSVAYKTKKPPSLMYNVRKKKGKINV
UniProt Q9UMY1: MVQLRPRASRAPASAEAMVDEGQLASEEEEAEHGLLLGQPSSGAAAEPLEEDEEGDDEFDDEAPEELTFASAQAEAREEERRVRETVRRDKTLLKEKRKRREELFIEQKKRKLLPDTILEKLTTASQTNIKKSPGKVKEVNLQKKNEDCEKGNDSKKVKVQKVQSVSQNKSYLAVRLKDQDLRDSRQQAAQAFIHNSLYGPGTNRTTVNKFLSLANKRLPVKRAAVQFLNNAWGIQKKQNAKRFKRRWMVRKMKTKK
UniProt Q9UGY1: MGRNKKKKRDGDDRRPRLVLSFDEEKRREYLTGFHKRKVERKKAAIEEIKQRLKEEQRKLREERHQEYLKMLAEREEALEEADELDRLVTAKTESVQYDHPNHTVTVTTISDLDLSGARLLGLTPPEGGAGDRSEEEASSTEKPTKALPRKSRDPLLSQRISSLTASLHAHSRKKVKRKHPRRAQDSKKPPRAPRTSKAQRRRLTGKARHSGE
UniProt Q9Y5B8, whole entry, looked up: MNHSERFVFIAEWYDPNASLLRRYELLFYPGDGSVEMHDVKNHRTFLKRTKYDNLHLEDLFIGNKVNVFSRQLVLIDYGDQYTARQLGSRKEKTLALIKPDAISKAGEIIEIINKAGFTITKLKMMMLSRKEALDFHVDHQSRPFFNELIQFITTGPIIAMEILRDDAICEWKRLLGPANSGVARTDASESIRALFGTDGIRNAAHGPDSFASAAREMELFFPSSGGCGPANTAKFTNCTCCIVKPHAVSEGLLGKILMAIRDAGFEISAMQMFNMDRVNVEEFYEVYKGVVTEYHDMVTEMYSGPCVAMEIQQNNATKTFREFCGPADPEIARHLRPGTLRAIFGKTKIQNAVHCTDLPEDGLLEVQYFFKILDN
UniProt P49116: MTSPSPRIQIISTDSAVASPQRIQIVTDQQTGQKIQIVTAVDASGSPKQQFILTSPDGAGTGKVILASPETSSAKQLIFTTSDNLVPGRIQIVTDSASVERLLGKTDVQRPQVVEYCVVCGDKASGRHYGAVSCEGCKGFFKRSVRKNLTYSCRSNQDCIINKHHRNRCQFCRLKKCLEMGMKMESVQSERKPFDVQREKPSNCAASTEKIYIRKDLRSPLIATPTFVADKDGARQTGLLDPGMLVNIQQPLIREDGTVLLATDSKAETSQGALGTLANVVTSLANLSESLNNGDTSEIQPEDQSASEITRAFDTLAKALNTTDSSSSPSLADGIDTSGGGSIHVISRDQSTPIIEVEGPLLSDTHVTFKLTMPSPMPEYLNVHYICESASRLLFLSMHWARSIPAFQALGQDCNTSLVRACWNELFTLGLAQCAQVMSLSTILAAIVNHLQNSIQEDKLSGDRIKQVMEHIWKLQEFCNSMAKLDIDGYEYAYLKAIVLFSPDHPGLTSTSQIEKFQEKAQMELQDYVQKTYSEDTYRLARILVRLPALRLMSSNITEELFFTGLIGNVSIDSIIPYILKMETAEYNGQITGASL
UniProt Q9H3P2, whole entry, looked up: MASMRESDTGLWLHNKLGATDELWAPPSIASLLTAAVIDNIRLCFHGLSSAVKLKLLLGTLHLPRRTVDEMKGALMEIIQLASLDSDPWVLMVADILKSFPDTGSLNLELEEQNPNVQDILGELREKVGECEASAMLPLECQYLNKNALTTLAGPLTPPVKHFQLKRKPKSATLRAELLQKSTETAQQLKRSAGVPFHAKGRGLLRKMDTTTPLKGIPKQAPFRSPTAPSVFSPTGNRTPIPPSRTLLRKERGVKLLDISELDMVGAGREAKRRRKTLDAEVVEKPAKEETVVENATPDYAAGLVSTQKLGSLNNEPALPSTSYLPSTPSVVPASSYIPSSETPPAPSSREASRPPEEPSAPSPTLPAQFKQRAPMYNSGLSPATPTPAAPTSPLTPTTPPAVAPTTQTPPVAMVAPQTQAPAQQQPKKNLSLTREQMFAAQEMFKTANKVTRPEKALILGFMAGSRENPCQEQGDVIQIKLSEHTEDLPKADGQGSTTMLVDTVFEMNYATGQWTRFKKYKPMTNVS
UniProt Q96IV0: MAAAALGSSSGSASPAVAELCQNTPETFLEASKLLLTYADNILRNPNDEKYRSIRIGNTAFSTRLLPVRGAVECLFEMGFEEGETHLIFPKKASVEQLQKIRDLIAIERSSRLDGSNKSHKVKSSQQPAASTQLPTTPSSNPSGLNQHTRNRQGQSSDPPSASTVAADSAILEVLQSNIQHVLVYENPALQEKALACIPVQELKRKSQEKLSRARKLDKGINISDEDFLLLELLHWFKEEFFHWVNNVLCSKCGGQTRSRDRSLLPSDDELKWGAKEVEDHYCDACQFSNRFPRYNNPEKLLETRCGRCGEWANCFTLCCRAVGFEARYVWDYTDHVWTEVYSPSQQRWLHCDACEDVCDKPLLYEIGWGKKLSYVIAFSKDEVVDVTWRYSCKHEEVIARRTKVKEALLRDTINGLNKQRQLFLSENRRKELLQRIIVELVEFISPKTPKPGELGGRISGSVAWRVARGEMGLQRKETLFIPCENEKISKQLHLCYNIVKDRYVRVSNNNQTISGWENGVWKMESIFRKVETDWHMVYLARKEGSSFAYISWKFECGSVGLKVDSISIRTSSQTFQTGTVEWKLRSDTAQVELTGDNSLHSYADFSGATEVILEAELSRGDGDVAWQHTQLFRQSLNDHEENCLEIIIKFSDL
UniProt Q9NX24: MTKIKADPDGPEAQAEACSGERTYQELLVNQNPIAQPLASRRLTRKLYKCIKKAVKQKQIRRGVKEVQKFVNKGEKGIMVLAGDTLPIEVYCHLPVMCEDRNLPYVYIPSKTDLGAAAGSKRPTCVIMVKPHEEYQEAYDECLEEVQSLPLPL
UniProt Q8WX92, whole entry, looked up: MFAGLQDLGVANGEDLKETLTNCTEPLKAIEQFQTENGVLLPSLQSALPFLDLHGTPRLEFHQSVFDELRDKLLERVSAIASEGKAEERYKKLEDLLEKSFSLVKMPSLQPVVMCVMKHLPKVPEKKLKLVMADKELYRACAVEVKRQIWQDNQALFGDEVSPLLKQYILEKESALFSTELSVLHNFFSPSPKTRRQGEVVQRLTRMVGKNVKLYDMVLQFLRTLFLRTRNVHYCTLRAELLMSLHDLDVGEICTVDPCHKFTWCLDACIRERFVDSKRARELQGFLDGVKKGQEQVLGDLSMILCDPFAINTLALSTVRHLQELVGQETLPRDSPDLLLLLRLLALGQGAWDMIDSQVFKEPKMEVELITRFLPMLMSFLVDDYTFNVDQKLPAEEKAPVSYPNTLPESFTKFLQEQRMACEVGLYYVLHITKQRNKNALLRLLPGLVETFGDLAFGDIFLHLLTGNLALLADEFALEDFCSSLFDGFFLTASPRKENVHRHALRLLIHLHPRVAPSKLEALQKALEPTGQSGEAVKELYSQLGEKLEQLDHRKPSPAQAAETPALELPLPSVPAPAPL
UniProt Q6ZNB6: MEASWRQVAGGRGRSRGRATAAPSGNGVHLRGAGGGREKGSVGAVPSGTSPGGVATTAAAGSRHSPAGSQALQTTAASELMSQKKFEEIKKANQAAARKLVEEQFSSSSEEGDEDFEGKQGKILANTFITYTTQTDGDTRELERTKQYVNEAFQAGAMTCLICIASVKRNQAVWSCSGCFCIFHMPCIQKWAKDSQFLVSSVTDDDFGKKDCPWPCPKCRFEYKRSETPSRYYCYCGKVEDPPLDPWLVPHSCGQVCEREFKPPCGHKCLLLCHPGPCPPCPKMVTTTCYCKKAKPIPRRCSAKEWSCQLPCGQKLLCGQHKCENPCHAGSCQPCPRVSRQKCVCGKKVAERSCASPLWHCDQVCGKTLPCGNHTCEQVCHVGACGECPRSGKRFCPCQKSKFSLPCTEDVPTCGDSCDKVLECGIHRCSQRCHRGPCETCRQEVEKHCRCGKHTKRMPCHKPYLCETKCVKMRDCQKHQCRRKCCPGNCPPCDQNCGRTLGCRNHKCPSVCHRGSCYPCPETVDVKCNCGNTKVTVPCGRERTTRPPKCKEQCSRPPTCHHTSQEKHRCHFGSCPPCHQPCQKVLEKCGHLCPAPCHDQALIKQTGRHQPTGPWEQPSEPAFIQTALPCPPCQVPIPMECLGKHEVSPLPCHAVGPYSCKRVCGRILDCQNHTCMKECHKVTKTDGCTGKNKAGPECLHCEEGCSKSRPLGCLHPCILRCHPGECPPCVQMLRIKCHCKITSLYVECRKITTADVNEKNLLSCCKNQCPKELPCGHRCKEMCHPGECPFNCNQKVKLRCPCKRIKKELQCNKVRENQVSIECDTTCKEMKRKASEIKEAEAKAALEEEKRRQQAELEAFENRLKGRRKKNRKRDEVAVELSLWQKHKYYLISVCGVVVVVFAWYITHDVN
UniProt Q92636: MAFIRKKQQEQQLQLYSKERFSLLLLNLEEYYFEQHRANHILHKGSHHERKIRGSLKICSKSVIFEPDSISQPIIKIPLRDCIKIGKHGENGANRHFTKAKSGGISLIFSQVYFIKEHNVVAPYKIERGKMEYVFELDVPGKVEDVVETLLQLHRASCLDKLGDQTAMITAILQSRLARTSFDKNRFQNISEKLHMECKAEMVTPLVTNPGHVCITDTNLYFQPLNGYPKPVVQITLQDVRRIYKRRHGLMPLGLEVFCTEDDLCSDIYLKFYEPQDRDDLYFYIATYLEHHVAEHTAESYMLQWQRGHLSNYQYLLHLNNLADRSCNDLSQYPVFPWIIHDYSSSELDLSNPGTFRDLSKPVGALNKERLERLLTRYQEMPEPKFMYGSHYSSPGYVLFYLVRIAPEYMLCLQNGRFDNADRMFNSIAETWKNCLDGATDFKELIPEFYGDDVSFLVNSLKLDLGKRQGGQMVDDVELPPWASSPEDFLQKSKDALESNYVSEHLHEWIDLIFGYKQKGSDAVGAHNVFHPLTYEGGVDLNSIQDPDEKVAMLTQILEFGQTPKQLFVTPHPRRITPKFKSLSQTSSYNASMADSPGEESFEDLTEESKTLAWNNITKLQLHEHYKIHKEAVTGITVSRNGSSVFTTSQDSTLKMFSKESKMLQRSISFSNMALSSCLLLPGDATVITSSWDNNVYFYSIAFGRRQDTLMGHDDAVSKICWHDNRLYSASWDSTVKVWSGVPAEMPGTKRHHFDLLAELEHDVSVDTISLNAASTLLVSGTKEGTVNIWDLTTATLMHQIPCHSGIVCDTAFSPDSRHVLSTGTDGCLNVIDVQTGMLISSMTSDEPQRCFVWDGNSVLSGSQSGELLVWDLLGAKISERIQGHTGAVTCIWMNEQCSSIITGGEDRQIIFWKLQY
UniProt Q9BXD5: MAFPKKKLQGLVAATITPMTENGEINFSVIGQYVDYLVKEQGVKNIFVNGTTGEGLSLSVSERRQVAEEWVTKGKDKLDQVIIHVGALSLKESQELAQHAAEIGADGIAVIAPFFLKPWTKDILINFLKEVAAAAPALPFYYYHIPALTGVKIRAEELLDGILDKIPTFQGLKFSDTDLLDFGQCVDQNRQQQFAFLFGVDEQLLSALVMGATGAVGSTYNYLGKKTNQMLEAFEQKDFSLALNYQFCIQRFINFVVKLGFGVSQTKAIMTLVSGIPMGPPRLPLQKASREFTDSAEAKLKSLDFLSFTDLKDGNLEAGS

Compound: Cc1nc(Nc2ncc(C(=O)Nc3c(C)cccc3Cl)s2)cc(N2CCN(CCO)CC2)n1 [dasatinib]
Experiment: log2 fold change, soluble protein after heating vs DMSO (PISA); higher = thermal stabilisation; K562 cells, 10 uM, 30 min; active = over 0.2 and 3.5 SD of the protein, either way, in both replicates (recomputed)
In short: (§1)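 K562 cells at 2×10^6 cells/mL were treated for 30 min with 10 μM compound, and aliquots were heated for 3 min over 48°C-58°C before pooling. Extraction used PBS with 0.5% NP-40 at 4°C, and soluble protein was the supernatant after 21,000xg for 90 min, measured by TMTpro 16plex LC-MS/MS with channel sums equalised. Thermal stability values, relative to control samples and from duplicates, are log2 fold changes.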

log2 fold change, inactive:
NOD1 (UniProt Q9Y239) 0.05, NOC2L (UniProt Q9Y3T9) -0.02, NMI (UniProt Q13287) 0.025, NOA1 (UniProt Q8NC60) -0.092, NOP2 isoform 4 (UniProt P46087) 0.344, NOL7 (UniProt Q9UMY1) 0.183, NOL12 (UniProt Q9UGY1) 0.179, NME7 (UniProt Q9Y5B8) -0.245, NOB1 (UniProt Q9ULX3) -0.054, NR2C2 isoform 2 (UniProt P49116) -0.026, NELFA (UniProt Q9H3P2) -0.112

Compound: Cc1ncc(-c2ccnc(Nc3ccc(S(C)(=O)=O)cc3)n2)n1C(C)C
Experiment: as above
In short: as §1

log2 fold change, inactive:
NFAT5 isoform 5 (UniProt O94916) -0.037, NGLY1 (UniProt Q96IV0) 0.021, NSF (UniProt P46459) -0.01, NLN (UniProt Q9BYT8) -0.018, NHP2 (UniProt Q9NX24) 0.067, NIPSNAP3B (UniProt Q9BS92) 0.013, NELFB isoform 2 (UniProt Q8WX92) 0.05, NFXL1 (UniProt Q6ZNB6) 0.043, NSMAF (UniProt Q92636) 0.009, NNT (UniProt Q13423) -0.018, NPL (UniProt Q9BXD5) 0.047, NOP56 (UniProt O00567) -0.026
